In experiment [1] the target is human acetylcholinesterase (pGBKT7-hACHE, aa 52-577) (human) (UniProt P22303). Nature of the experiment: two-hybrid; Matchmaker Gold; small scale mating (5 ml) of Y2HGold [pGBKT7-hACHE] bait with Y187 preys, no hybrid ligand; DDO agar with aureobasidin A (200 ng/ml) and X-alpha-Gal (40 ug/ml) (DDO/X/A).
Experiment [2] shares this target. Nature of the experiment: yeast three-hybrid; small scale mating (10 ml) of bait and prey strains with 10 uM hybrid ligand 3e; DDO agar with 10 uM ligand, aureobasidin A (200 ng/ml) and X-alpha-Gal (40 ug/ml); blue colonies moved to QDO/X/A agar with and without 10 uM ligand.

Chains of the proteins cited; added tags and fusions are not shown. Residues count along the entry.
UniProt P22303, residues 52-577: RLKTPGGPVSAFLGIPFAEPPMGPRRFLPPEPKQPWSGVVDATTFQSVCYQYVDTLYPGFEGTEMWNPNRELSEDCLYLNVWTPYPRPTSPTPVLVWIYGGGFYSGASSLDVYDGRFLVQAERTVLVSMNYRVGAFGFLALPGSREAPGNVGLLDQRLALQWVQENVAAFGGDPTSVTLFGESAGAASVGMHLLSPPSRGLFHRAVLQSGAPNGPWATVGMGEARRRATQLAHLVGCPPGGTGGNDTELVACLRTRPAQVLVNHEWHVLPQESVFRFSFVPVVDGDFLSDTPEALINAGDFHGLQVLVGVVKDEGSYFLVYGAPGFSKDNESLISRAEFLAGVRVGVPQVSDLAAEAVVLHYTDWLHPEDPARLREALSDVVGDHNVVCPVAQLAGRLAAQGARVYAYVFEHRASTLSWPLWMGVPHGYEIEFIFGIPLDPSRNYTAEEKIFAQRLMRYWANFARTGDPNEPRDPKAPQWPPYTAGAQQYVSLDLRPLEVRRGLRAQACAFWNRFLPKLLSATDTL
UniProt P27338, residues 1-489: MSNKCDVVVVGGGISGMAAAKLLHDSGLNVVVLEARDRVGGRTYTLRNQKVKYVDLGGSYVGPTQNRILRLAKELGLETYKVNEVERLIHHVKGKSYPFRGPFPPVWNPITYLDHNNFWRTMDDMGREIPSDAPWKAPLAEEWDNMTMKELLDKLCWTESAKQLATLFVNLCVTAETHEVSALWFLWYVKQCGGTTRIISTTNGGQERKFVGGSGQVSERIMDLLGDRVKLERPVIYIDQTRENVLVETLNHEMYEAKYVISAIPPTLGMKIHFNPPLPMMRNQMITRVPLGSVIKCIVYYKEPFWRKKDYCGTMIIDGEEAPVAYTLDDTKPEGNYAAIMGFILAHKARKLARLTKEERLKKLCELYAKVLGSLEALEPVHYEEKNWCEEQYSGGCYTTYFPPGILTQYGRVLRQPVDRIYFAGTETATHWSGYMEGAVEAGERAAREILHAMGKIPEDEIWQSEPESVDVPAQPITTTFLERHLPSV

No constants are given. Whether binding was seen depends on the method and setting.

From publication PMC9848259 (Journal of Enzyme Inhibition and Medicinal Chemistry, 2023) come the findings set out here.

For the substance “human monoamine oxidase B, cytoplasmic domain (pGADT7-hMAO B, aa 1-489) (from UniProt P27338 1-489) (domain or fragment)”, the binding result in experiment [1] and in experiment [2] was “no binding” in each case.

With “human microtubule associated protein tau (pGADT7-hMAPT, aa 1-758) (from UniProt P10636-1 1-758)”, the binding entry in experiment [1] and in experiment [2] was “no binding” in each case.
